According to paper PMC11233663, “ZBP1 condensate formation synergizes Z-NAs recognition and signal transduction” (Cell Death & Disease, 2024):
No constants are given. Whether binding was seen depends on the method and setting. For some assays here: In cells and extracts the contact can be indirect. Some entries that bind do so weakly or less than the wild type. For some assays here: Where a sequence is shown, tags or fusion partners need not be part of it.

The chains behind the UniProt entries cited, without tags or fusion partners. Residues count along the entry.
UniProt Q13546, residues 496-583: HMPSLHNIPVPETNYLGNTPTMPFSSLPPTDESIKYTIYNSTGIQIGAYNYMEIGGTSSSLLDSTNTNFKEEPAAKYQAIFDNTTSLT
UniProt Q9Y572: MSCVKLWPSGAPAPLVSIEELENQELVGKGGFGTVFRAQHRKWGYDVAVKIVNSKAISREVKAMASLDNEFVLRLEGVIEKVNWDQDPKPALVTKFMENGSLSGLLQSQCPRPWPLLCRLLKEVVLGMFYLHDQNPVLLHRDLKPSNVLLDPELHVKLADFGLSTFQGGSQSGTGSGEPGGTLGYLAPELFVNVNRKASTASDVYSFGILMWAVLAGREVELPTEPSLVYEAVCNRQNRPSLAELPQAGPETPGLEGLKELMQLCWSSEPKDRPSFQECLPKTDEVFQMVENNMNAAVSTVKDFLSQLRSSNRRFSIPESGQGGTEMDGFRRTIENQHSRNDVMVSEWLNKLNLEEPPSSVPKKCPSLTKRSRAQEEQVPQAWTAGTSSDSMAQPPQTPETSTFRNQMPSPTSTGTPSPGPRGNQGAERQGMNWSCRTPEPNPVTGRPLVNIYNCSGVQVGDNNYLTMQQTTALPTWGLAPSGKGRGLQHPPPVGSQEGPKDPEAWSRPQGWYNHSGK

T1: GFP-tagged wild-type full-length ZBP1 (human) (UniProt Q9H171)
T1 sequence: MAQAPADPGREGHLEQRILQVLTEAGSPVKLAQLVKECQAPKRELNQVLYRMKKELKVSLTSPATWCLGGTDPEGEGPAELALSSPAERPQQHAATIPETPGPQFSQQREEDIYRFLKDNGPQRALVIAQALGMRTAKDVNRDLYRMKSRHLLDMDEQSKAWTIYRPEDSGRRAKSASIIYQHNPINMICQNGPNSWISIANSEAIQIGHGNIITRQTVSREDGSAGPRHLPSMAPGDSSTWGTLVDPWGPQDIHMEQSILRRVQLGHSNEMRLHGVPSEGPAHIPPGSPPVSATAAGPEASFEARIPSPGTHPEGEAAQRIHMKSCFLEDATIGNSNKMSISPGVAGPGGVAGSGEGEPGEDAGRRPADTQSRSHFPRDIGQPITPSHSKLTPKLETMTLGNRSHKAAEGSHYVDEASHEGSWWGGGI


What was measured:
[1] = target: T1, GFP-tagged wild-type full-length ZBP1 (human); assay: co-IP; HT-29 cell lysates immunoprecipitated with an anti-GFP antibody, immunoblotted for RIP3
RIP1-RHIM (496-583) = RIP1-RHIM (496-583) (UniProt Q13546); assay: Thioflavin T fluorescence (cross-seeding); 10 μM denatured RIP1-RHIM diluted into native SEC buffer, 20 μM ThT, ZBP1-RHIM1 + 2 seeds at 1, 2 and 3 μM, 25 °C; both purified

Row | binding [1] | binding (RIP1-RHIM (496-583)) | Molecule
1 | binds |  | endogenous RIP3 (from UniProt Q9Y572 1-518)
2 |  | binds | ZBP1-RHIM 1 + 2 (residues 168-280) (domain or fragment, human, UniProt Q9H171 168-280, looked up, the tag is inferred from the purification; also called RHIM 1 + 2 high-oligomer seed; source: E. coli BL21 Codonplus (DE3)-RIPL, purified (Ni-NTA, Superdex 200 10/300)) EDSGRRAKSASIIYQHNPINMICQNGPNSWISIANSEAIQIGHGNIITRQTVSREDGSAGPRHLPSMAPGDSSTWGTLVDPWGPQDIHMEQSILRRVQLGHSNEMRLHGVPSE
